These are yes or no findings as the source states them, for the method shown.
Molecular target: bACE2-Rm (bat ACE2 from Rhinolophus macrotis) expressed in insect cells, residues 19 to 615 (Rhinolophus macrotis) (UniProt E2DHI3)
Test: SPR; both purified

SARS-CoV spike receptor binding domain (SARS-RBD) (from UniProt P59594 306-527) (domain or fragment)
binding: no binding (tested: 31.25 nM to 1 μM)

Reference: publication PMC7817217
